Laboratory results taken from patent US20160281093.

Sequences of proteins named here, by UniProt entry; tags and fusion partners are left off. Residues count along the entry.
UniProt P00582, 324-928: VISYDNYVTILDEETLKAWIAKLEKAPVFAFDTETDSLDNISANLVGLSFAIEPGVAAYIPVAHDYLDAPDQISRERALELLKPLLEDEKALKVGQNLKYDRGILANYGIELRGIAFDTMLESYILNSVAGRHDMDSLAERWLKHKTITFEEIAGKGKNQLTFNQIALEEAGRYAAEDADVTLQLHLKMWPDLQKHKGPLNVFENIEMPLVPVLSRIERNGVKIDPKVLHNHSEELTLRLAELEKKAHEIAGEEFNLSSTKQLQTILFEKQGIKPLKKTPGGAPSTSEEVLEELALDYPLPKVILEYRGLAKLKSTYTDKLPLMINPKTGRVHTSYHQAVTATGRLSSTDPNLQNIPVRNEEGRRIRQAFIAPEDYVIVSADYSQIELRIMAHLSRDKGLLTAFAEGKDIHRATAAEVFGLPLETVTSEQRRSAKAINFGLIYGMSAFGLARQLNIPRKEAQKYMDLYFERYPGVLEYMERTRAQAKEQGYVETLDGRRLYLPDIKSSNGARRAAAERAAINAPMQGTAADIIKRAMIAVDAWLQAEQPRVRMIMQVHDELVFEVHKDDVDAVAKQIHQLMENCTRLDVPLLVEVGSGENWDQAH

Experiments:
[1] = target: E. coli DNA polymerase I (Escherichia coli) (UniProt P00582); assay: activity assay; settings: primer extension in absence of RNA, 50% synthesis at 1.8 uM dNTPs; 10 mM MgCl2, 37 C; purified recombinant protein; protein details: New England Biolabs; label: 5'-32P primer
[2] = target: Klenow DNA polymerase (large fragment of DNA pol I) (Escherichia coli) (UniProt P00582); assay: activity assay; settings: RNA-dependent dATP hydrolysis by TLC; 10 mM MgCl2, 50 mM NaCl, pH 7.9, 37 C; purified recombinant protein; protein details: New England Biolabs

| Sequence | activity on this sequence [1] | activity on this sequence [2] |
| --- | --- | --- |
| GCGTAATACGACTCACTATAG / TGTACGTTTCGGCCTTTCGGCCTCATCAGGTTGCCTATAGTGAGTCGTATTACGC [primer 21.1/template 55.1] | active |  |
| UCGACA [6-mer RNA] |  | active |
